Measured values taken from article PMC8298264, “Function of cofactor Akirin2 in the regulation of gene expression in model human neutrophil-like HL60 cells” (Bioscience Reports, 2021).

B1: sp¦P53396¦ACLY_HUMAN (protein, UniProt P53396 1-1101, looked up)
ATP-citrate synthase: MSAKAISEQTGKELLYKFICTTSAIQNRFKYARVTPDTDWARLLQDHPWLLSQNLVVKPDQLIKRRGKLGLVGVNLTLDGVKSWLKPRLGQEATVGKATGFLKNFLIEPFVPHSQAEEFYVCIYATREGDYVLFHHEGGVDVGDVDAKAQKLLVGVDEKLNPEDIKKHLLVHAPEDKKEILASFISGLFNFYEDLYFTYLEINPLVVTKDGVYVLDLAAKVDATADYICKVKWGDIEFPPPFGREAYPEEAYIADLDAKSGASLKLTLLNPKGRIWTMVAGGGASVVYSDTICDLGGVNELANYGEYSGAPSEQQTYDYAKTILSLMTREKHPDGKILIIGGSIANFTNVAATFKGIVRAIRDYQGPLKEHEVTIFVRRGGPNYQEGLRVMGEVGKTTGIPIHVFGTETHMTAIVGMALGHRPIPNQPPTAAHTANFLLNASGSTSTPAPSRTASFSESRADEVAPAKKAKPAMPQDSVPSPRSLQGKSTTLFSRHTKAIVWGMQTRAVQGMLDFDYVCSRDEPSVAAMVYPFTGDHKQKFYWGHKEILIPVFKNMADAMRKHPEVDVLINFASLRSAYDSTMETMNYAQIRTIAIIAEGIPEALTRKLIKKADQKGVTIIGPATVGGIKPGCFKIGNTGGMLDNILASKLYRPGSVAYVSRSGGMSNELNNIISRTTDGVYEGVAIGGDRYPGSTFMDHVLRYQDTPGVKMIVVLGEIGGTEEYKICRGIKEGRLTKPIVCWCIGTCATMFSSEVQFGHAGACANQASETAVAKNQALKEAGVFVPRSFDELGEIIQSVYEDLVANGVIVPAQEVPPPTVPMDYSWARELGLIRKPASFMTSICDERGQELIYAGMPITEVFKEEMGIGGVLGLLWFQKRLPKYSCQFIEMCLMVTADHGPAVSGAHNTIICARAGKDLVSSLTSGLLTIGDRFGGALDAAAKMFSKAFDSGIIPMEFVNKMKKEGKLIMGIGHRVKSINNPDMRVQILKDYVRQHFPATPLLDYALEVEKITTSKKPNLILNVDGLIGVAFVDMLRNCGSFTREEADEYIDIGALNGIFVLGRSMGFIGHYLDQKRLKQGLYRHPWDDISYVLPEHMSM
B2: sp¦P46109¦CRKL_HUMAN (protein, UniProt P46109 1-303, looked up)
Crk-like protein: MSSARFDSSDRSAWYMGPVSRQEAQTRLQGQRHGMFLVRDSSTCPGDYVLSVSENSRVSHYIINSLPNRRFKIGDQEFDHLPALLEFYKIHYLDTTTLIEPAPRYPSPPMGSVSAPNLPTAEDNLEYVRTLYDFPGNDAEDLPFKKGEILVIIEKPEEQWWSARNKDGRVGMIPVPYVEKLVRSSPHGKHGNRNSNSYGIPEPAHAYAQPQTTTPLPAVSGSPGAAITPLPSTQNGPVFAKAIQKRVPCAYDKTALALEVGDIVKVTRMNINGQWEGEVNGRKGLFPFTHVKIFDPQNPDENE
B3: sp¦P41240¦CSK_HUMAN (protein, UniProt P41240 2-450, looked up)
Tyrosine-protein kinase CSK: SAIQAAWPSGTECIAKYNFHGTAEQDLPFCKGDVLTIVAVTKDPNWYKAKNKVGREGIIPANYVQKREGVKAGTKLSLMPWFHGKITREQAERLLYPPETGLFLVRESTNYPGDYTLCVSCDGKVEHYRIMYHASKLSIDEEVYFENLMQLVEHYTSDADGLCTRLIKPKVMEGTVAAQDEFYRSGWALNMKELKLLQTIGKGEFGDVMLGDYRGNKVAVKCIKNDATAQAFLAEASVMTQLRHSNLVQLLGVIVEEKGGLYIVTEYMAKGSLVDYLRSRGRSVLGGDCLLKFSLDVCEAMEYLEGNNFVHRDLAARNVLVSEDNVAKVSDFGLTKEASSTQDTGKLPVKWTAPEALREKKFSTKSDVWSFGILLWEIYSFGRVPYPRIPLKDVVPRVEKGYKMDAPDGCPPAVYEVMKNCWHLDAAMRPSFLQLREQLEHIKTHELHL
B4: sp¦P14868¦SYDC_HUMAN (protein, UniProt P14868 1-501, looked up)
Aspartate--tRNA ligase, …: MPSASASRKSQEKPREIMDAAEDYAKERYGISSMIQSQEKPDRVLVRVRDLTIQKADEVVWVRARVHTSRAKGKQCFLVLRQQQFNVQALVAVGDHASKQMVKFAANINKESIVDVEGVVRKVNQKIGSCTQQDVELHVQKIYVISLAEPRLPLQLDDAVRPEAEGEEEGRATVNQDTRLDNRVIDLRTSTSQAVFRLQSGICHLFRETLINKGFVEIQTPKIISAASEGGANVFTVSYFKNNAYLAQSPQLYKQMCICADFEKVFSIGPVFRAEDSNTHRHLTEFVGLDIEMAFNYHYHEVMEEIADTMVQIFKGLQERFQTEIQTVNKQFPCEPFKFLEPTLRLEYCEALAMLREAGVEMGDEDDLSTPNEKLLGHLVKEKYDTDFYILDKYPLAVRPFYTMPDPRNPKQSNSYDMFMRGEEILSGAQRIHDPQLLTERALHHGIDLEKIKAYIDSFRFGAPPHAGGGIGLERVTMLFLGLHNVRQTSMFPRDPKRLTP
B5: sp¦Q96C01¦F136A_HUMAN (protein, UniProt Q96C01 2-138, looked up)
Protein FAM136A: AELQQLRVQEAVESMVKSLERENIRKMQGLMFRCSASCCEDSQASMKQVHQCIERCHVPLAQAQALVTSELEKFQDRLARCTMHCNDKAKDSIDAGSKELQVKQQLDSCVTKCVDDHMHLIPTMTKKMKEALLSIGK
B6: sp¦P17174¦AATC_HUMAN (protein, UniProt P17174 2-413, looked up)
Aspartate aminotransferase, …: APPSVFAEVPQAQPVLVFKLTADFREDPDPRKVNLGVGAYRTDDCHPWVLPVVKKVEQKIANDNSLNHEYLPILGLAEFRSCASRLALGDDSPALKEKRVGGVQSLGGTGALRIGADFLARWYNGTNNKNTPVYVSSPTWENHNAVFSAAGFKDIRSYRYWDAEKRGLDLQGFLNDLENAPEFSIVVLHACAHNPTGIDPTPEQWKQIASVMKHRFLFPFFDSAYQGFASGNLERDAWAIRYFVSEGFEFFCAQSFSKNFGLYNERVGNLTVVGKEPESILQVLSQMEKIVRITWSNPPAQGARIVASTLSNPELFEEWTGNVKTMADRILTMRSELRARLEALKTPGTWNHITDQIGMFSFTGLNPKQVEYLVNEKHIYLLPSGRINVSGLTTKNLDYVATSIHEAVTKIQ
B7: sp¦O43865¦SAHH2_HUMAN (protein, UniProt O43865 2-530, looked up)
S-adenosylhomocysteine …: SMPDAMPLPGVGEELKQAKEIEDAEKYSFMATVTKAPKKQIQFADDMQEFTKFPTKTGRRSLSRSISQSSTDSYSSAASYTDSSDDEVSPREKQQTNSKGSSNFCVKNIKQAEFGRREIEIAEQDMSALISLRKRAQGEKPLAGAKIVGCTHITAQTAVLIETLCALGAQCRWSACNIYSTQNEVAAALAEAGVAVFAWKGESEDDFWWCIDRCVNMDGWQANMILDDGGDLTHWVYKKYPNVFKKIRGIVEESVTGVHRLYQLSKAGKLCVPAMNVNDSVTKQKFDNLYCCRESILDGLKRTTDVMFGGKQVVVCGYGEVGKGCCAALKALGAIVYITEIDPICALQACMDGFRVVKLNEVIRQVDVVITCTGNKNVVTREHLDRMKNSCIVCNMGHSNTEIDVTSLRTPELTWERVRSQVDHVIWPDGKRVVLLAEGRLLNLSCSTVPTFVLSITATTQALALIELYNAPEGRYKQDVYLLPKKMDEYVASLHLPSFDAHLTELTDDQAKYLGLNKNGPFKPNYYRY
B8: sp¦Q9HAV7¦GRPE1_HUMAN (protein, UniProt Q9HAV7 28-217, looked up)
GrpE protein homolog 1, …: CTATKQKNSGQNLEEDMGQSEQKADPPATEKTLLEEKVKLEEQLKETVEKYKRALADTENLRQRSQKLVEEAKLYGIQAFCKDLLEVADVLEKATQCVPKEEIKDDNPHLKNLYEGLVMTEVQIQKVFTKHGLLKLNPVGAKFDPYEHEALFHTPVEGKEPGTVALVSKVGYKLHGRTLRPALVGVVKEA

tested on: human HL60 cells; assay: SWATH-MS proteomics, differential protein representation, akirin2 KO vs WT HL60 cells; format: cell-based; details: akirin2 KO vs WT HL60 cells, SWATH-MS; sheet "Under-represented in KO"
Description: Total proteins were extracted from WT and akirin2 KO HL60 cells using the AllPrep DNA/RNA/Protein Mini Kit (Qiagen) and protein concentration was determined using the BCA Protein Assay with BSA (Sigma–Aldrich) as standard. Protein extracts (150 µg per sample, n=3 biological replicates) from each WT and KO cells were trypsin digested using the FASP Protein Digestion Kit (Expedeon Ltd., Abcam, Cambridge, U.K.) and sequencing grade trypsin (Promega, Madison, WI, U.S.A.) following manufacturer’s recommendations. The resulting peptides were finally desalted on to OMIX Pipette tips C18 (Agilent Technologies, Santa Clara, CA, U.S.A.), dried down and stored at −20 °C until mass spectrometry analysis. […] Three micrograms of each protein digest from the three biological replicates of WT and akirin2 KO HL60 cells were used for the generation of the reference spectral ion library as part of the SWATH-MS analysis.
Peptides were eluted in a 120-min gradient from 5 to 30% solvent B in solvent A followed by 15-min gradient from 30 to 60% solvent B in solvent A (solvent A: 0.1% formic acid in water, solvent B: 0.1% formic acid in acetonitrile) and directly injected into the mass spectrometer for analysis. For IDA experiments, the mass spectrometer was set to scanning full spectra (350–1400 m/z) using 250 ms accumulation time per spectrum, followed by up to 50 MS/MS scans (100–1500 m/z). Candidate ions with a charge state between +2 and +5 counts per second above a minimum threshold of 100 were isolated for fragmentation. One MS/MS spectrum was collected for 100 ms, before adding those precursor ions to the exclusion list for 15 s (mass spectrometer operated by Analyst TF 1.6, AB Sciex). Dynamic background subtraction was turned off. MS/MS analyses were recorded in high-sensitivity mode with rolling collision energy on and a collision energy spread of 5. For SWATH quantitative analysis, six independent samples (three replicates from WT and akirin2 KO HL60 cells, 5 µg each) were subjected to the cyclic DIA of mass spectra using the SWATH variable windows calculator (V 1.0, AB Sciex) and the SWATH acquisition method editor (AB Sciex), similar to established methods. […] For these experiments, a 50-ms survey scan (350–1400 m/z) was acquired at the beginning of each cycle, and SWATH–MS/MS spectra were collected from 100–1500 m/z for 70 ms at high-sensitivity mode, resulting in a cycle time of 3.6 s. Collision energy for each window was determined according to the calculation for a charge +2 ion-centered upon the window with a collision energy spread of 15. To create a spectral library of all the detectable peptides in the samples, the IDA MS raw files were combined and subjected to database search in unison using ProteinPilot software v. 5.0.1 (AB Sciex) with the Paragon algorithm. […] The detected protein threshold was set at 0.05. An independent false discovery rate (FDR) analysis, using the target–decoy approach provided by Protein Pilot (AB Sciex; https://sciex.com/products/software/proteinpilot-software), was used to assess the quality of identifications. Positive identifications were considered when identified proteins reached 1% of global FDR. […] Global normalization was performed according to the Total Area Sums (TAS) of all detected proteins in the samples. […] Heatmaps were prepared using the Heatmapper (http://www.heatmapper.ca/expression/) with average linkage and Euclidean distance measurement method.

Row | Molecule | Fold Change | Log (Fold Change)
1 | B1 | 0.7979 | -0.09806
2 | B2 | 0.8005 | -0.09661
3 | B3 | 0.8017 | -0.096
4 | B4 | 0.8089 | -0.09212
5 | B5 | 0.8101 | -0.09148
6 | B6 | 0.8155 | -0.08859
7 | B7 | 0.8156 | -0.08853
8 | B8 | 0.8165 | -0.08804
